Measurements taken from article PMC5059862.
No constants are given. Whether binding was seen depends on the method and setting. Binding seen in cells or lysates may run through a third protein. Some entries that bind do so weakly or less than the wild type. For some assays here: Where a sequence is shown, tags or fusion partners need not be part of it.

Chains of the proteins cited; added tags and fusions are not shown.
UniProt P10361: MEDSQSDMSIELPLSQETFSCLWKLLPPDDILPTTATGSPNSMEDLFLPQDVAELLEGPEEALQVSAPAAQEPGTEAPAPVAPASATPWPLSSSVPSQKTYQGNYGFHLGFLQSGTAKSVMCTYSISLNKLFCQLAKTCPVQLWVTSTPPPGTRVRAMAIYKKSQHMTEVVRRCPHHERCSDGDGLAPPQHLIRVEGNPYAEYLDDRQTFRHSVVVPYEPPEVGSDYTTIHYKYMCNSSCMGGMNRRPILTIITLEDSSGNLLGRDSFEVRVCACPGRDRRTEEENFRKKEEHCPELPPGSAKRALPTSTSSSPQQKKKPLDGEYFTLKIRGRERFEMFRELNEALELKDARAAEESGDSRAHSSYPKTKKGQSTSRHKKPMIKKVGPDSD

B1: ANXA1-His (annexin 1, His-tagged, from pcDNA-ANXA1) (protein, UniProt P04083 1-346)
chain: MAMVSEFLKQAWFIENEEQEYVQTVKSSKGGPGSAVSPYPTFNPSSDVAALHKAIMVKGVDEATIIDILTKRNNAQRQQIKAAYLQETGKPLDETLKKALTGHLEEVVLALLKTPAQFDADELRAAMKGLGTDEDTLIEILASRTNKEIRDINRVYREELKRDLAKDITSDTSGDFRNALLSLAKGDRSEDFGVNEDLADSDARALYEAGERRKGTDVNVFNTILTTRSYPQLRRVFQKYTKYSKHDMNKVLDLELKGDIEKCLTAIVKCATSKPAFFAEKLHQAMKGVGTRHKALIRIMVSRSEIDMNDIKAFYQKMYGISLCQAILDETKGDYEKILVALCGGN
B2: annexin 1 (ANXA1), endogenous in primary cultured rat neurons (protein, UniProt P07150 1-346)
chain: MAMVSEFLKQACYIEKQEQEYVQAVKSYKGGPGSAVSPYPSFNPSSDVAALHKAIMVKGVDEATIIDILTKRTNAQRQQIKAAYLQETGKPLDETLKKALTGHLEEVVLAMLKTPAQFDADELRAAMKGLGTDEDTLIEILTTRSNQQIREITRVYREELKRDLAKDITSDTSGDFRNALLALAKGDRCEDMSVNQDLADTDARALYEAGERRKGTDVNVFNTILTTRSYPHLRKVFQNYRKYSQHDMNKALDLELKGDIEKCLTTIVKCATSTPAFFAEKLYEAMKGAGTRHKTLIRIMVSRSEIDMNEIKVFYQKKYGIPLCQAILDETKGDYEKILVALCGGN

How the values were obtained:
[1] = target: p53-GFP (p53, GFP-tagged, from pEGFP-p53) (UniProt P04637); assay: co-IP; HEK293 cells transfected with pcDNA-ANXA1 (His-tagged) and pEGFP-p53 (GFP-tagged), treated without or with OGD/R; lysates (20 mM HEPES, 400 mM KCl, 5% glycerol, 5 mM EDTA, 0.4% NP-40) incubated with anti-GFP antibody overnight at 4 °C, protein A/G PLUS-Agarose beads
[2] = target: p53, endogenous in primary cultured rat neurons (rat (endogenous in primary cultured cortical neurons)) (UniProt P10361); assay: co-IP; endogenous proteins of primary cultured rat neurons treated without or with OGD/R, subcellular location of the interaction examined; lysates incubated with anti-p53 antibody overnight at 4 °C, protein A/G PLUS-Agarose beads

Binder | binding [1] | binding [2]
B1 | binds | –
B2 | – | binds
